The campaign covered roughly 390,000 compounds. About 910 (0.23%) were called active. Inconclusive means that the source gave no clear call. Such entries were picked first, then a sample of the others. The call rests on the fitted dose curve; in most records, active means well fitted inhibition curve with a large enough effect; inconclusive means small, poorly fitted or top-dose-only effect; inactive means no such curve, though single readings can be large or run the other way. A potency beside an inconclusive call is a rough fit, not a confirmed value.
molecular target: Ubiquitin carboxyl-terminal hydrolase 1 (Homo sapiens) (UniProt O94782); assay: Inhibitors of USP1/UAF1: Primary Screen; conditions: recombinant USP1/UAF1, Ub-Rhodamine cleavage fluorescence; activity change, negative = inhibition: at 57.1 µM (top of the series); further: nearly all actives have a fitted effect of over 60% in size
Procedure, shortened: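 Step one: compound is pinned into 1nM USP1/UAF1 in HEPES pH 7.8 buffer with TCEP. Step two: 15 min room-temperature incubation. Step three: Ub-Rho (150nM final) starts cleavage, tracked by fluorescence over six one-minute reads.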
On the % scale 0 is the no-effect control and ±100 the full control effect; potency means the concentration at half of the fitted maximal effect.

Amino acid sequences for entries named in this document (tags omitted). A change or cut given only in a name is not applied to a line headed by its entry.
UniProt O94782: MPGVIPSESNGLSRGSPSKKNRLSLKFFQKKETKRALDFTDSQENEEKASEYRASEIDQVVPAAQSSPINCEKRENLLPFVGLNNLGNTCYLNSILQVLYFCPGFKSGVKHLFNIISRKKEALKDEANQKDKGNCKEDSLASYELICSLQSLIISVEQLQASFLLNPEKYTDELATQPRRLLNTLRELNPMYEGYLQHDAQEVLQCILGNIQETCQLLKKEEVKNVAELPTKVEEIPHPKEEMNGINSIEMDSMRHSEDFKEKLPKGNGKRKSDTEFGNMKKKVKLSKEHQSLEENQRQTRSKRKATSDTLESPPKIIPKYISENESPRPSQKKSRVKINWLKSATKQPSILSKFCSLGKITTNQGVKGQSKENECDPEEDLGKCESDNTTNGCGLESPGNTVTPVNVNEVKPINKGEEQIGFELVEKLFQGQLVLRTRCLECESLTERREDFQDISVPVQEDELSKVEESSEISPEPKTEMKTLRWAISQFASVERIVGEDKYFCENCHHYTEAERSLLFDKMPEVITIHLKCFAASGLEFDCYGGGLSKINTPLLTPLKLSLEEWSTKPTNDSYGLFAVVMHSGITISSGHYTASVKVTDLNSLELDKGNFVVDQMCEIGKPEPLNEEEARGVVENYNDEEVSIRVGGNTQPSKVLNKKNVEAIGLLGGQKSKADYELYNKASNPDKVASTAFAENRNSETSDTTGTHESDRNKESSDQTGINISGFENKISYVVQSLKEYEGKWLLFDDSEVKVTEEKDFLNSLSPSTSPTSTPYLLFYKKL

Potency, inconclusive:
COc1cc(OC)c(NC(=O)/C=C/C(=O)O)cc1Cl 50.1 µM [inhibitor, partial curve, poor fit], CN(C)C(=O)c1cccc(COc2ccc(N3C(N)=NC(N)=NC3(C)C)cc2Cl)c1 3.16 µM [inhibitor, partial curve], CSc1ccccc1NC(=S)N/N=C/c1cccn1Cc1cccc(C)c1 7.94 µM [inhibitor, partial curve, poor fit], Cc1ccc(C2CC(=O)Oc3cc(O)ccc32)cc1 (stereo not given) 22.4 µM [inhibitor, partial curve, poor fit], CCCS(=O)(=O)c1ncc(Cl)c(C(=O)N(Cc2ccccc2)Cc2ccco2)n1 5.01 µM [inhibitor, full curve, poor fit], O=C(NCc1ccc2c(c1)CCN2C(=O)c1ccc(F)cc1)c1ccc(Br)o1 56.2 µM [inhibitor, single point], COc1cccc(CNC(=O)Cn2cc3c(n2)-c2c(oc(C(=O)N4CCCC4)c2C)CC3)c1OC 44.7 µM [inhibitor, single point], Cc1[nH][nH]c(=O)c1C(c1ccc(-c2ccc(F)cc2)o1)c1c(C)[nH][nH]c1=O 35.5 µM [inhibitor, partial curve], Cc1cc(NC(=O)N2CC=C(c3c[nH]c4ccccc34)CC2)ccc1Br 17.8 µM [inhibitor, partial curve], COc1c2ccoc2c(OC[C@@H](O)C(C)(C)O)c2oc(=O)ccc12 11.2 µM [inhibitor, partial curve, poor fit], Cn1c(=O)c2c(nc(SCC(=O)Nc3ccc(OC(F)(F)F)cc3)n2Cc2cccc(C(F)(F)F)c2)n(C)c1=O 0.891 µM [inhibitor, full curve, poor fit], COc1ccc(-c2noc(-c3ccc(NCc4ccc(C)cc4)c([N+](=O)[O-])c3)n2)cc1OC 11.2 µM [inhibitor, full curve, poor fit], Cc1ccc(C)c(C(=O)COC(=O)CNS(=O)(=O)c2ccccc2)c1 0.398 µM [inhibitor, full curve, poor fit], COc1cccc(-c2nc(SCC(=O)Nc3ccc4c(c3)OCO4)c(-c3ccccc3)[nH]2)c1 1 µM [inhibitor, full curve, poor fit], O=C(/C=C/c1ccccc1Cl)OCC(=O)N1CCCC1 7.94 µM [inhibitor, partial curve, poor fit], COC(=O)CNC(c1ccccc1)c1cc(Br)ccc1NC(C)=O (stereo not given) 7.08 µM [inhibitor, partial curve, poor fit], Cc1ccc(S(=O)(=O)N2[C@@H](c3ccc(C(C)(C)C)cc3)C(C(=O)O)=CC[C@H]2c2ccc(C(C)C)cc2)cc1 44.7 µM [inhibitor, partial curve, poor fit], CC(=O)Nc1ccc(S(=O)(=O)Nc2cccc(-c3ccc(N4CCC(C)CC4)nn3)c2)cc1 5.62 µM [inhibitor, full curve], COCCN(C(=O)CSCC(=O)Nc1cccc(C)c1)c1c(N)n(Cc2ccccc2)c(=O)[nH]c1=O 3.98 µM [inhibitor, full curve], CCOC(=O)C1(C)C=C(Nc2ccc(C(N)=O)cc2)C(=O)N1c1ccccc1 (stereo not given) 2.82 µM [inhibitor, full curve, poor fit], Cc1[nH]nc2c1C(c1cnn(C)c1)C(C#N)=C(N)O2 (stereo not given) 10 µM [inhibitor, partial curve, poor fit], COc1cc(-c2cc(-c3ccc(N)cc3)[nH]c(=O)c2C#N)cc(OC)c1OC 35.5 µM [inhibitor, partial curve, poor fit], C#CCOCCOCCOCCNc1nc(N2CCN(C(=O)CCCCCCCCCCNC(=O)[C@H](CCCCN)n3cc(C[C@@H](C)CC)nn3)CC2)nc(N2CCN(C(=O)CCCCCCCCCCNC(=O)[C@H](CCCCN)n3cc(C[C@@H](C)CC)nn3)CC2)n1 39.8 µM [inhibitor, partial curve, poor fit], Cc1nc(N)sc1-c1csc(Nc2ccc(S(N)(=O)=O)cc2)n1 39.8 µM [inhibitor, partial curve], CC1(C)Cc2nc3oc4c(=O)n(CC(=O)Nc5ccc(Cl)cc5)cnc4c3cc2CO1 35.5 µM [inhibitor, partial curve], O=C(NC(c1ccccc1)c1ccccc1)c1ccc(CO)cc1 7.94 µM [inhibitor, partial curve, poor fit], COc1ccc(CNC(=O)Cn2ccc3cc(S(=O)(=O)N4CCCCCC4)ccc32)cc1OC 2.24 µM [inhibitor, full curve, poor fit], CC(=O)c1ccc(N(C(=O)Cc2c[nH]c3ccccc23)C(C(=O)NC2CCCCC2)c2cccs2)cc1 (stereo not given) 22.4 µM [inhibitor, partial curve], O=C(NC1CCN(C(=S)Nc2ccc(F)cc2)CC1)c1ccco1 39.8 µM [inhibitor, single point], O=C1COCC(=O)N1CCc1c[nH]c2ccccc12 44.7 µM [inhibitor, single point], Cc1c(CNCc2ccc(Cl)cc2)c(C(=O)O)c(C)n1Cc1ccc(F)cc1 7.08 µM [inhibitor, partial curve, poor fit], COc1ccc(C2(C)NC(=O)N(CC(=O)NCC(=O)Nc3ccc(F)c(F)c3F)C2=O)cc1OC (stereo not given) 44.7 µM [inhibitor, partial curve, poor fit], CCC(O)c1nc2ccccc2n1Cc1cccc(Cl)c1 (stereo not given) 5.62 µM [inhibitor, partial curve, poor fit], CC(C)c1ccc(C2CC(=O)c3cnc(NC(=O)c4ccco4)nc3C2)cc1 (stereo not given) 0.251 µM [inhibitor, full curve, poor fit], COc1ccc(C(CNC(=O)COc2ccc(C)c(C)c2)N2CCCCC2)cc1 (stereo not given) 0.251 µM [inhibitor, full curve], Cc1c(/C=N/NC(=O)c2ccc(Br)o2)cnn1C 5.01 µM [inhibitor, partial curve, poor fit], Cc1ccc(NC(=O)CN2C(=O)CCSc3ccc(S(=O)(=O)N4CCCC4)cc32)cc1 0.251 µM [inhibitor, full curve, poor fit], COc1cccc(NC(=O)CCC2CCN(C(=O)C(OC)c3ccccc3)CC2)c1 (stereo not given) 0.398 µM [inhibitor, full curve, poor fit], COc1ccc(C)cc1N(C(=O)c1ccco1)C(C(=O)NC1CCCC1)c1cc(OC)c(OC)c(OC)c1 (stereo not given) 35.5 µM [inhibitor, partial curve, poor fit], Cn1c2ccccc2c2cc(/C=N/NC(=O)c3ccc(N)cc3)ccc21 44.7 µM [inhibitor, partial curve, poor fit], O=C1CC(c2nc3ccccc3n2CCCCOc2ccccc2)CN1c1ccccc1Cl (stereo not given) 15.8 µM [inhibitor, partial curve], COc1ccc(S(=O)(=O)N2CCN(C(=O)c3ccc([N+](=O)[O-])o3)CC2)cc1 7.94 µM [inhibitor, partial curve, poor fit], Cc1ccc(C)c(C(=O)CN2C(=O)c3ccccc3C2=O)c1 1.12 µM [inhibitor, full curve, poor fit]

Potency, active:
COc1ccc(C(=O)/C=C/c2ccc(N(C)C)cc2)c(OC)c1 22.4 µM

Activity change, negative = inhibition, inactive:
COc1ccc(OCCOC(=O)CN2C(=O)NC3(CCCC3)C2=O)cc1 7.9%, N#Cc1ccc(-c2ccc(OCC(O)CN3CCCCC3)cc2)cc1 (stereo not given) -15.6%, Cc1ccc(S(=O)(=O)Nc2ccc(NC(=O)Nc3ccc(F)cc3F)cc2)cc1 -2.79%, CN(C)S(=O)(=O)N(CC(=O)NCCSCc1ccccc1Cl)c1ccccc1 -5.9%, CCOc1ccc(CCNC(=O)CCCc2nnc3n(CC(C)C)c(=O)c4sccc4n23)cc1 -9.44%, Cc1ccc(C(=O)c2oc3ccccc3c2NC(=O)c2cc(=O)c3ccccc3o2)cc1 -23.6%, COc1cccc(-c2ccc(NC(=O)C3CCCN(Cc4ccco4)C3)cc2)c1 (stereo not given) -17.3%, Cn1cc(C(c2ccccc2OCC(=O)O)c2cn(C)c3ccccc23)c2ccccc21 -6.93%, COc1ccc2c(c1)CC(N1CCN(C)CC1)c1cc(OC)ccc1S2 (stereo not given) -11.8%, COC(=O)/C=C/C(=O)Nc1ccc(O)c(Cl)c1 -8.66%, CC(=O)NC1C(=O)N(CCN2CCOCC2)c2ccc(C)cc21 (stereo not given) -6.01%, CCOc1ccc(-n2cc(C(=O)NC(C)C)c3cc(OC)c(OC)cc3c2=O)cc1 -21.7%, O=[N+]([O-])c1ccc2nc(-c3ccc(Cl)cc3)[nH]c2c1 -21.9%, O=C(CSC1=NCCN1)NC(c1ccccc1)c1ccccc1 -13.3%, CCOC(=O)c1cccc(NC(=O)CSc2ncc3c(n2)-c2ccccc2N(C)S3(=O)=O)c1 -32.3%

Activity change, negative = inhibition, inconclusive:
CN1CCN(c2nc(NCc3ccco3)nc(N)c2[N+](=O)[O-])CC1 -12.2% [inhibitor]

— PubChem BioAssay AID743255 (National Center for Advancing Translational Sciences (NCATS), 2014)
